The record followed here is patent US20250129170A1.

Sequences of proteins named here, by UniProt entry; tags and fusion partners are left off. Residues count along the entry.
UniProt P32927, residues 17-443: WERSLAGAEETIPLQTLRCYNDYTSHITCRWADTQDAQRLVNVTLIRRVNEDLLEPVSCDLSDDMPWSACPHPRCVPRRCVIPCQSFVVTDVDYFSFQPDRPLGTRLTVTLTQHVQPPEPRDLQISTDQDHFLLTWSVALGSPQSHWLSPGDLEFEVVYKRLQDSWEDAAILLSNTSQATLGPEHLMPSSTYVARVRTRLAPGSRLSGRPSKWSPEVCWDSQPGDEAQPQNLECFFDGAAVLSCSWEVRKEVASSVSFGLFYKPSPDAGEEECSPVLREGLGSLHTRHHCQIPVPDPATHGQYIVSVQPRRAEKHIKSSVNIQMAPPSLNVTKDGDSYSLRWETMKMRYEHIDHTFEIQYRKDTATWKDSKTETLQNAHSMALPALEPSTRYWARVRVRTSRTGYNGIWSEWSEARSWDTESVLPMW

These are yes or no findings as the source states them, for the method shown. Some binding calls cover weakened binding; strength is not graded here.

Sequences and labels used below:
B1: anti-CD131 antibody clonotype198 (Table 6) (antibody, V domains shown)
VH: QVQLVESGGGAVQPGRSLRLSCVASGFTFSNYDMHWVRQAPGKGLEWVAVIWSDGSNKYYSDSVKGRFTISRDNSKNTLYLQMTSLSAEDSALSYCVRAARYSGTYIFDYWGQGTLVTVSS
VL: SYVLTQSPSMSVAPGKTARITCGGNNIGSKSVHWYQQRPGQAPVLVIYYDSDRPSGIPERFSGSNSGNTATLTISRVEAGDEAVYYCQVWDSSSYHYVFGTGTKVAVL
B2: anti-CD131 antibody clonotype193 (Table 6) (antibody, V domains shown)
VH: EVQLVESGGGLVQPGGSLRLSCAASGFTFSSYDMHWVRQATGKGLEWVSAIGTAGDTYYPGSVKGRFTISRENAKNSLYLQMNSLRAGDTAVYYCAREETGTTSWYFDLWGRGTLVTVSS
VL: QSALTQPASVSGSPGQSITISCTGTSSDVGGYNYVSWYQQHPGKAPKLMIYEVSNRPSGVSNRFSGSKSGNTASLTISGLQAEDEADYYCSSYTSSSTLYVFGTGTKVTVL
B3: anti-CD131 antibody clonotype194 (Table 6) (antibody, V domains shown)
VH: EVQLVESGGGLVQPGGSLRLSCAASGFTFSSYSMNWVRQAPGKGLEWVSYISSSSSTIYYADSVKGRFTISRDNAKNSLYLQMNSLRDEDTAVYYCARGYSYGYWYFDLWGRGTLVTVSS
VL: QSALTQPASVSGSPGQSITISCTGTSSDVGGYNYVSWYQQHPGKAPKLMIYEVSNRPSGVSNRFSGSKSGNTASLTISGLQAEDEADYYCSSYTSSSTPYVFGTGTKVTVL
B4: anti-CD131 antibody clonotype207 (Table 6) (antibody, V domains shown)
VH: QVQLQESGPGLVKPSGTLSLTCVVSGGSITSSNWWSWVRQPPGKGLEWIGEIYHSGNTNYNPSLKSRVTISVDKSKNQFSLRLSSVTAADTAVYYCARAPLTGTTNWFDPWGQGTLVTVSS
VL: QSVLTQPPSVSGAPGQRVTISCSGSSSNIGAGYDVHWYQQLPGTGPKVLIYGNRNRPSGVPDRFSGSKSGTSASLVITGLQAEDEADYSCQSYDSSLSGWVFGGGTKLTVL
B5: anti-CD131 antibody clonotype191 (Table 6) (antibody, V domains shown)
VH: QVQLVESGGGLVKPGGSLRLSCAASGFTFSDYYMSWIRQAPGKGLEWVSYISHSGTTVYYADSVKGRFTISRDNAKISLYLQMNSLRAEDTAVYYCAGLRHFDWLGFDSWGQGTLVTVSS
VL: QTVVTQEPSLTVSPGGTVTLTCASSTGAVTSGYYPNWFQQKPGQAPRALIYSTSNKHSWTPARFSGSLLGGKAALTLSGVQPEDEAEYYCLLYYGGAWVFGGGTKLTVL
B6: anti-CD131 antibody clonotype201 (Table 6) (antibody, V domains shown)
VH: EVQLVESGGGLVQPGGSLRLSCAASGFTFSSYWMSWVRQAPGKGLEWVANIKQDGSEKYYVDSVKGRFTISRDNAKNSLYLQMNSLRAEDTAVYYCAREYNWNYEDAFDIWGQGTMVTVSS
VL: QTVVTQEPSLTVSPGGTVTLTCASSTGAVTSGYYPNWFQQKPGQAPRALIYSTSNKHSWTPARFSGSLLGGKAALTLSGVQPEDEAEYYCLLYYGGAQVFGGGTKLTVL
B7: anti-CD131 antibody clonotype220 (Table 6) (antibody, V domains shown)
VH: EVQLVESGGGLVQPGRSLRLSCAASGFTFDDYAMHWVRQAPGKGLEWVSGISRNSGSVGYADSVRGRFTISRDNAKNSLYLQMNSLRAEDTALYYCAKGGYDFWSGYYPFDPWGQGTLVTVSS
VL: SYELTQPLSVSVALGQTARITCGENNIVNKNVHWYQQKPGQAPVLVIYRDGNRPSGIPERFSGSNSGNTATLTISRAQAGDEADYYCQVWDNNTPWVFGGGTKLTVL
B8: anti-CD131 antibody clonotype211 (Table 6) (antibody, V domains shown)
VH: EVQLVESGGGLVKPGGSLRLSCAASGFTFSSYSMNWVRQAPGKGLEWVSSISSSSSYIYYADSVKGRFTISRDNAKNSLYLQMNSLRAEDTAVYYCAREDGYSSGWNYFDYWGQGTLVTVSS
VL: SSELTQDPAVSVALGQTVRITCQGDSLRSYYASWYQQKPGQAPVLVIYGKNNRPSGIPDRFSGSSSGNTASLTITGAQAEDEADYYCNSRDSSGNHWVFGGGTKLTVL
B9: anti-CD131 antibody clonotype213 (Table 6) (antibody, V domains shown)
VH: QVQLVQSGSELKKPGASVKVSCKASGYTVTRHALNWVRQAPGQGLEWMGWINTNTGTPTYAQGFIGRFVFTLDTSVSTAYLQINSLKAEDTAVYYCARDQTPSDHYYYMDVWGKGTTVTVSS
VL: SSELTQDPAVSVALGQTVRITCQGDSLRSYYASWYQQKPGQAPVLVIYGKNNRPSGIPDRFSGSSSGNTASLTITGAQAEDEADYYCNSRDSSGNHYVFGTGTKVTVL
B10: anti-CD131 antibody clonotype214 (Table 6) (antibody, V domains shown)
VH: LAHLVQSGAEVKRPGASVKVSCKAFGYAFRGQHIHWVRQAPGQGLEWMGWIRPNSGDTNYSQKFQGRVTMTRDTSITTAYMELTRLRSDDSAVYYCARDRGITMRLDNMDVWGKGTMVTVSS
VL: SSELTQDPAVSVALGQTVRITCQGDSLRSYYASWYQQKPGQAPVLVIYGKNNRPSGIPDRFSGSSSGNTASLTITGAQAEDEADYYCNSRDSSGNHLVFGGGTKLTVL
B11: anti-CD131 antibody clonotype202 (Table 6) (antibody, V domains shown)
VH: QITLKESGPTLVKPTQTLTLTCTFSGFSLSTSGVGVGWIRQPPGKALEWLALIYWNDDKRYSPSLKSRLTITKDTSKNQVVLTMTNMDPVDTATYYCAHRRGSYSNWFDPWGQGTLVTVSS
VL: QSALTQPASVSGSPGQSITISCTGTSSDVGGYNYVSWYQQHPGKAPKLMIYDVSKRPSGVSNRFSGSKSGNTASLTISGLQAEDEADYYCCSYAGSSTWVFGGGTKLTVL
B12: anti-CD131 antibody clonotype215 (Table 6) (antibody, V domains shown)
VH: EVQLVESGGTLVQPGGSLTLSCAASGFTFSDSAMHWVRQASGKGLEWVGRIRGKPNTYATAYAASVKGRFTISKDDSKNTAFLQMNSLKTEDRAVYYCTRRYNWNDVGFDYWGQGTLVTVSS
VL: QSALTQPASVSGSPGQSITISCTGTSSDVGAYNYVSWYQQHPGKAPKFMIYDVSKRPSGVSNRFSGSKSGNTASLTISGLQAEDEADYYCCSYAGSNTYVFGTGTRVTVL
B13: anti-CD131 antibody clonotype205 (Table 6) (antibody, V domains shown)
VH: QVQLVQSGAEVRKPVASVKVSCKASGYTFTDHSIHWVRQAPGQGLEWMGSINPNSGGTNYAQKFQGRVTMTWDTYNSTAFMELSRLRSDDTAVYYCARSDGGSHYVFFDDWGQGTLVTVSS
VL: QSVLTQPPSVSEAPRQRVTISCSGSISNIGNNAVSWYQQVPGKAPKLLIYYDDLLPSGVSDRFSGSRSVTSASLAISGLQSEDDADYYCTAWDDRLNGPVFGGGTKLTVL
B14: anti-CD131 antibody clonotype192 (Table 6) (antibody, V domains shown)
VH: EVQLVESGGGLVQPGGSLRLSCAASGFTFSSYAMNWVRQAPGKGLEWVSIINDSGYSTYYADSVKGRFTISRDNSKNTLYLQMNSLRAEDTALYYCAKEDNWNYGWFDPWGQGTLVTVSS
VL: QSALTQPASVSGSPGQSITISCTGTSSDVGGYNYVSWYQQHPGKAPKVIIYEVIIRPSGVSPRFSGSKSGKMASLTISGLQAEDEADYYCSSYTSSSTWVFGGGTKLTVL
B15: anti-CD131 antibody clonotype206 (Table 6) (antibody, V domains shown)
VH: EVQLVESGGGLVQPGRSLRLSCAASGFTFDDYAMHWVRQAPGKGLEWVSGISWNSGSIGYADSVKGRFTISRDNAKNSLYLQMNSLRAEDTALYYCAKDIAYSSSGHFDYWGQGTLVTVSS
VL: QSALTQPPSASGSPGQSVTISCTGTSSDVGGYNYVSWYQQHPGKAPKLMIYEVSKRPSGVPDRFSGSKSGNTASLTVSGLQAEDEADYYCSSYAGSNNLVFGGGTKLTVL

The assay has as its target hCD131-Fc (IME021, inhouse) (human) (UniProt P32927). The experiment in a line: B-cell sorting with labelled hCD131-Fc, then single-cell sequencing.
Consider B1, for which the binding entry is given as “binds”.
Consider B2, for which the binding result is listed as “binds”.
As to B3, the binding entry is on record as “binds”.
Then B4, with “binds”; and B5, with “binds”; and B6, with “binds”.
On to B7, for which the binding entry was “binds”.
For B8 the value was “binds”.
B9: the binding entry is on record as “binds”.
Then B10, with “binds”; and B11, with “binds”; and B12, with “binds”.
On to B13, for which the binding result was “binds”.
Then B14, with “binds”.
On to B15, for which the binding entry is “binds”.
